Experimental findings from US12290521B2, “Methods and materials for identifying and treating BET inhibitor-resistant cancers” (Mayo Foundation for Medical Education and Research, priority 2018, dated 2025) are described below.

In the test the test system is DU145 cells. The test can be described thus: Cell proliferation (MTS assay). Type of test: cell-based, human. The note with it: DUB3-overexpressing DU145 cells; I-BET 5 μM. The method, then: Cell proliferation was measured by using the MTS assay (Promega). Prostate cancer cells (2,000 per well) were seeded in 96-well plates with 100 μL of culture medium. Each well was added with 20 μL of CellTiter 96R AQueous One Solution Reagent (Promega) and absorbance was measured in a microplate reader at 490 nm.
DU145 prostate cancer cells were infected with empty vector (EV) or SPOP F133V mutant lentivirus and selected with purimycin for 48 hours. The cells then were treated with vehicle (DMSO), a CBP/p300 inhibitor (CPI-637; iCBP; 20 μM), or a BET inhibitor (JQ1; 2 μM) alone or a combination of CPI-637 and JQ1. After 72 hours, cells were subjected to measurement of cell growth by an MTS assay. In each cell type (EV and F133V), the OD value in each group was normalized by the value in the control (vehicle) group.
(Tetrazolium dyes change colour on reduction, which living cells bring about.)

`CCNC(=O)C[C@@H]1N=C(c2ccc(Cl)cc2)c2cc(OC)ccc2-n2c(C)nnc21` [i-BET762]: the “resistance of cell growth by DUB3 overexpression” value is recorded as “conferred resistance”.
